The target in one assay is His-14-3-3ζ. Description: FRET or BRET; His-14-3-3ζ 12 nM with Europium-anti-His antibody 0.75 nM and Cy5 peptides at 10, 5 and 1 µM; 20 mM Tris pH 7.4, 0.1% Nonidet P40, 50 mM NaCl, BSA; 2 h at room temperature; 384-well plate; both purified. (BRET reads energy transfer from a luciferase to a nearby fluorophore.)
The target in assay [1] is phospho-binding defective 14-3-3 (K49Q). Nature of the assay: co-IP; co-IP of TNK1 with 14-3-3 (K49Q), Supplementary Fig. 2f; which partner was precipitated is not told.

No constants are given. Whether binding was seen depends on the method and setting. For some assays here: In cells and extracts the contact can be indirect. For some assays here: Where a sequence is shown, tags or fusion partners need not be part of it.

As to CRMKGISRSLESVLSLGP (Cy5 maleimide on the N-terminal cysteine; C-terminal amide) [Cy5-TNK1 peptide (non-phosphorylated)], in the assay with His-14-3-3ζ, the binding result is “no binding (tested: 10 µM)”.

B1: FLAG-TNK1 (wild type) (enzyme, UniProt Q13470 1-666)
chain: MLPEAGSLWLLKLLRDIQLAQFYWPILEELNVTRPEHFDFVKPEDLDGIGMGRPAQRRLSEALKRLRSGPKSKNWVYKILGGFAPEHKEPTLPSDSPRHLPEPEGGLKCLIPEGAVCRGELLGSGCFGVVHRGLWTLPSGKSVPVAVKSLRVGPEGPMGTELGDFLREVSVMMNLEHPHVLRLHGLVLGQPLQMVMELAPLGSLHARLTAPAPTPPLLVALLCLFLRQLAGAMAYLGARGLVHRDLATRNLLLASPRTIKVADFGLVRPLGGARGRYVMGGPRPIPYAWCAPESLRHGAFSSASDVWMFGVTLWEMFSGGEEPWAGVPPYLILQRLEDRARLPRPPLCSRALYSLALRCWAPHPADRPSFSHLEGLLQEAGPSEACCVRDVTEPGALRMETGDPITVIEGSSSFHSPDSTIWKGQNGRTFKVGSFPASAVTLADAGGLPATRPVHRGTPARGDQHPGSIDGDRKKANLWDAPPARGQRRNMPLERMKGISRSLESVLSLGPRPTGGGSSPPEIRQARAVPQGPPGLPPRPPLSSSSPQPSQPSRERLPWPKRKPPHNHPMGMPGARKAAALSGGLLSDPELQRKIMEVELSVHGVTHQECQTALGATGGDVVSAIRNLKVDQLFHLSSRSRADCWRILEHYQWDLSAASRYVLARP
B1: in assay [1], the binding entry was “no binding”.
